3 substances from article PMC8105379 can be followed below.

Chains of the proteins cited; added tags and fusions are not shown.
UniProt Q8TEQ6: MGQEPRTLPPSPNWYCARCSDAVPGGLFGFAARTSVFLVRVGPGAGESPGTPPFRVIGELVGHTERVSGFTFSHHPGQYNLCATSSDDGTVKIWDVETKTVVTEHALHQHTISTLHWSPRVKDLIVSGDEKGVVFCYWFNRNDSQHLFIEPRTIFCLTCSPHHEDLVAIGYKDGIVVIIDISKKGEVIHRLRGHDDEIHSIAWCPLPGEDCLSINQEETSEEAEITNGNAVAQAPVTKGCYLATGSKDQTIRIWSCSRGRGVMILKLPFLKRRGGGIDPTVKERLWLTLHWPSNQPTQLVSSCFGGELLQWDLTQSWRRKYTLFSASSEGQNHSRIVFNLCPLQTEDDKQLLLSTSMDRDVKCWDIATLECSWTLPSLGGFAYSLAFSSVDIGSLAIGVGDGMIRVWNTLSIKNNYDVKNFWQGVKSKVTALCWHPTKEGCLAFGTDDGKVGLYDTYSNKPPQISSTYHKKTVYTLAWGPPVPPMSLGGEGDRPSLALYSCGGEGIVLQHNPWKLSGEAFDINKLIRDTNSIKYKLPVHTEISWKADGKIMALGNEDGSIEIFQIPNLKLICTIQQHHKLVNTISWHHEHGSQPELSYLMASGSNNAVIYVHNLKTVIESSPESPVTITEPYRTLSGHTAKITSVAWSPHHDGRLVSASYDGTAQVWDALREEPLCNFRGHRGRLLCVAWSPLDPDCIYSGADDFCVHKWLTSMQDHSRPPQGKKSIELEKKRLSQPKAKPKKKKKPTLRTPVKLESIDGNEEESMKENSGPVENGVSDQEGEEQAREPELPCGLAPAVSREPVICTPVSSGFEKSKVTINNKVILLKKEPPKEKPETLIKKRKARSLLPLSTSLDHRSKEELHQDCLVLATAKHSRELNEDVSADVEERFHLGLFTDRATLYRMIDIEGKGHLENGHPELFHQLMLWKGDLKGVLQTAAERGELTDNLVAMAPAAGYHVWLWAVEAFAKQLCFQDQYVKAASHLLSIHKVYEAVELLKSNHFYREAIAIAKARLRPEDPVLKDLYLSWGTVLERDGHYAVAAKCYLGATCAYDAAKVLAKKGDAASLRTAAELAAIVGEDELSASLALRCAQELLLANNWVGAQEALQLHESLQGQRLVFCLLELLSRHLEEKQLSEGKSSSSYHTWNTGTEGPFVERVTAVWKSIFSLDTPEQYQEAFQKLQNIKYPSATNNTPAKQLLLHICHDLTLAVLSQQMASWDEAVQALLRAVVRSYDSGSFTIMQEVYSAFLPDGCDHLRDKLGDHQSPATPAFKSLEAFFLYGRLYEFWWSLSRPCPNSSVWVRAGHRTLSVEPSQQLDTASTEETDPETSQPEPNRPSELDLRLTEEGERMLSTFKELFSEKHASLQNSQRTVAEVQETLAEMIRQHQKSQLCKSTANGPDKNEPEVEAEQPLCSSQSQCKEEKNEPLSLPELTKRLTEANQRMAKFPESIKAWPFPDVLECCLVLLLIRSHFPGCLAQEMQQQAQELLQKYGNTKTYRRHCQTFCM
UniProt Q9UHI6: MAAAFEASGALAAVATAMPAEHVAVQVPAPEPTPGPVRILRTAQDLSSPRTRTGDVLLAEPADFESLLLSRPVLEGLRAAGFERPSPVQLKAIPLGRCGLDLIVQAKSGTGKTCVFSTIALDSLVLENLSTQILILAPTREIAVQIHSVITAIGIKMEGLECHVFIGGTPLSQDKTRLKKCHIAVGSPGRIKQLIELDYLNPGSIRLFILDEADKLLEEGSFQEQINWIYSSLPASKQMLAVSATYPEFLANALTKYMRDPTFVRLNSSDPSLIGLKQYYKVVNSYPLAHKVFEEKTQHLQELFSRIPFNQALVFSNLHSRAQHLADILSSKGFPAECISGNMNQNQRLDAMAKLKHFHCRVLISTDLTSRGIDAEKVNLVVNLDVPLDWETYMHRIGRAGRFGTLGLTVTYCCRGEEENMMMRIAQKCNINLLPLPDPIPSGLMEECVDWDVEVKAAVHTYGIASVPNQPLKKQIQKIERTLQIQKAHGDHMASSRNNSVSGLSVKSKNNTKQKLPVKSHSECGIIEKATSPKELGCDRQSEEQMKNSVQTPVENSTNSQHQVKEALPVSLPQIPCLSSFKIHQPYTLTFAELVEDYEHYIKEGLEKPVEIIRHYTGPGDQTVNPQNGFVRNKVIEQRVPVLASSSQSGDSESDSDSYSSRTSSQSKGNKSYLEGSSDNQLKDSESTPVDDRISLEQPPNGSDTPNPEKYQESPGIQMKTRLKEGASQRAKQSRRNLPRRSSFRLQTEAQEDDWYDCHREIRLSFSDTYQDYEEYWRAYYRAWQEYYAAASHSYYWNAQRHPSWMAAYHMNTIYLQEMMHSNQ
UniProt P57678: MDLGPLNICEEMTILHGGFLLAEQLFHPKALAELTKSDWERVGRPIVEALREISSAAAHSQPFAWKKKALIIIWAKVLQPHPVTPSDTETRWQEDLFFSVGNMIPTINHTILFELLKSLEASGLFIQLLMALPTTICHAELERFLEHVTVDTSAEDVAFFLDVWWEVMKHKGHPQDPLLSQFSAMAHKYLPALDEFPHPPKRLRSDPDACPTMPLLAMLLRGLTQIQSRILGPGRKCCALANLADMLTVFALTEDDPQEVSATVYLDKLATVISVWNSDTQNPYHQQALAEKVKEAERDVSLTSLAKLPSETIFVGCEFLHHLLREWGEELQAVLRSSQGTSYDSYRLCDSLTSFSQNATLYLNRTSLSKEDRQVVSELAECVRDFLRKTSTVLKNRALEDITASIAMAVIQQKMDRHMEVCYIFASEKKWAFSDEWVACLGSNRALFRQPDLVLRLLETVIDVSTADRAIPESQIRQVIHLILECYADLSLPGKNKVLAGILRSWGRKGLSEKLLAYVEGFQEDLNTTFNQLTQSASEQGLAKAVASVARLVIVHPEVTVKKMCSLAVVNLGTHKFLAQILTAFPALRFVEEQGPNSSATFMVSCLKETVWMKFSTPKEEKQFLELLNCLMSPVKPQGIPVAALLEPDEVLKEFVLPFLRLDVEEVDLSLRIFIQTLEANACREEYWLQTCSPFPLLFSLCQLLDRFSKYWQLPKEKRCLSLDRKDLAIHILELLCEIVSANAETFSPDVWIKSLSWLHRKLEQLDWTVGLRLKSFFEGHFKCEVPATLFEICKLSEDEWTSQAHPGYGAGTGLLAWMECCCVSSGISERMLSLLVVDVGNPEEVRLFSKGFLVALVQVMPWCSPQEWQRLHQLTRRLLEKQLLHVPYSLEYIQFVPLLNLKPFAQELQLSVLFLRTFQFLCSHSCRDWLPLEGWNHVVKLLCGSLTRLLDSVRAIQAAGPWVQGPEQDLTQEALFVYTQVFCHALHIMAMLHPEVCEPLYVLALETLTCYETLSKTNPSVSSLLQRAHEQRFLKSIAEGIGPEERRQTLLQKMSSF
UniProt Q16637: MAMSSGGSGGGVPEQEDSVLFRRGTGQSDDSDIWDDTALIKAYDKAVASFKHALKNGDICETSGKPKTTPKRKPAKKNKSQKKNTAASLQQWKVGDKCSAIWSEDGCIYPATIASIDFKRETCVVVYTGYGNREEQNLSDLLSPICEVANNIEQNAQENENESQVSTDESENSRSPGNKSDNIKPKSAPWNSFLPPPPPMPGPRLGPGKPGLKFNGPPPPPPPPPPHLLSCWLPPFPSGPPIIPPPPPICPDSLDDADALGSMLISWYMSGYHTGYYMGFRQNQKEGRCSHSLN

This experiment deals with HA-tagged GEMIN5 WT (human) (UniProt Q8TEQ6). Nature of the experiment: co-IP; lysates of HEK cells expressing HA-tagged GEMIN5, L1068P or H913R in 10 mM Tris-HCl pH 7.5, 100 mM NaCl, 2.5 mM MgCl2, 0.1% NP40, 2 mM DTT; anti-HA antibody overnight at 4 °C, Protein A Dynabeads 3 h at 4 °C; blots for HA, GEMIN4, GEMIN3 and SMN.

Results are given in words; binding and its absence hold for the method and conditions named. Binding seen in cells or lysates may run through a third protein. Some entries that bind do so weakly or less than the wild type.

Regarding GEMIN3 (from UniProt Q9UHI6 1-824), the binding result is “binds”.
Take GEMIN4 (from UniProt P57678 1-1058): the binding entry is listed as “binds”.
In the case of SMN (from UniProt Q16637 1-294) it was “binds”.
